Test results as given in patent US20110223184A1.
These are yes or no findings as the source states them, for the method shown. In cells and extracts the contact can be indirect. Some entries that bind do so weakly or less than the wild type.

By UniProt entry, the sequences of proteins in these tests, tags left out. Residues count along the entry.
UniProt P25054, residues 2-2843: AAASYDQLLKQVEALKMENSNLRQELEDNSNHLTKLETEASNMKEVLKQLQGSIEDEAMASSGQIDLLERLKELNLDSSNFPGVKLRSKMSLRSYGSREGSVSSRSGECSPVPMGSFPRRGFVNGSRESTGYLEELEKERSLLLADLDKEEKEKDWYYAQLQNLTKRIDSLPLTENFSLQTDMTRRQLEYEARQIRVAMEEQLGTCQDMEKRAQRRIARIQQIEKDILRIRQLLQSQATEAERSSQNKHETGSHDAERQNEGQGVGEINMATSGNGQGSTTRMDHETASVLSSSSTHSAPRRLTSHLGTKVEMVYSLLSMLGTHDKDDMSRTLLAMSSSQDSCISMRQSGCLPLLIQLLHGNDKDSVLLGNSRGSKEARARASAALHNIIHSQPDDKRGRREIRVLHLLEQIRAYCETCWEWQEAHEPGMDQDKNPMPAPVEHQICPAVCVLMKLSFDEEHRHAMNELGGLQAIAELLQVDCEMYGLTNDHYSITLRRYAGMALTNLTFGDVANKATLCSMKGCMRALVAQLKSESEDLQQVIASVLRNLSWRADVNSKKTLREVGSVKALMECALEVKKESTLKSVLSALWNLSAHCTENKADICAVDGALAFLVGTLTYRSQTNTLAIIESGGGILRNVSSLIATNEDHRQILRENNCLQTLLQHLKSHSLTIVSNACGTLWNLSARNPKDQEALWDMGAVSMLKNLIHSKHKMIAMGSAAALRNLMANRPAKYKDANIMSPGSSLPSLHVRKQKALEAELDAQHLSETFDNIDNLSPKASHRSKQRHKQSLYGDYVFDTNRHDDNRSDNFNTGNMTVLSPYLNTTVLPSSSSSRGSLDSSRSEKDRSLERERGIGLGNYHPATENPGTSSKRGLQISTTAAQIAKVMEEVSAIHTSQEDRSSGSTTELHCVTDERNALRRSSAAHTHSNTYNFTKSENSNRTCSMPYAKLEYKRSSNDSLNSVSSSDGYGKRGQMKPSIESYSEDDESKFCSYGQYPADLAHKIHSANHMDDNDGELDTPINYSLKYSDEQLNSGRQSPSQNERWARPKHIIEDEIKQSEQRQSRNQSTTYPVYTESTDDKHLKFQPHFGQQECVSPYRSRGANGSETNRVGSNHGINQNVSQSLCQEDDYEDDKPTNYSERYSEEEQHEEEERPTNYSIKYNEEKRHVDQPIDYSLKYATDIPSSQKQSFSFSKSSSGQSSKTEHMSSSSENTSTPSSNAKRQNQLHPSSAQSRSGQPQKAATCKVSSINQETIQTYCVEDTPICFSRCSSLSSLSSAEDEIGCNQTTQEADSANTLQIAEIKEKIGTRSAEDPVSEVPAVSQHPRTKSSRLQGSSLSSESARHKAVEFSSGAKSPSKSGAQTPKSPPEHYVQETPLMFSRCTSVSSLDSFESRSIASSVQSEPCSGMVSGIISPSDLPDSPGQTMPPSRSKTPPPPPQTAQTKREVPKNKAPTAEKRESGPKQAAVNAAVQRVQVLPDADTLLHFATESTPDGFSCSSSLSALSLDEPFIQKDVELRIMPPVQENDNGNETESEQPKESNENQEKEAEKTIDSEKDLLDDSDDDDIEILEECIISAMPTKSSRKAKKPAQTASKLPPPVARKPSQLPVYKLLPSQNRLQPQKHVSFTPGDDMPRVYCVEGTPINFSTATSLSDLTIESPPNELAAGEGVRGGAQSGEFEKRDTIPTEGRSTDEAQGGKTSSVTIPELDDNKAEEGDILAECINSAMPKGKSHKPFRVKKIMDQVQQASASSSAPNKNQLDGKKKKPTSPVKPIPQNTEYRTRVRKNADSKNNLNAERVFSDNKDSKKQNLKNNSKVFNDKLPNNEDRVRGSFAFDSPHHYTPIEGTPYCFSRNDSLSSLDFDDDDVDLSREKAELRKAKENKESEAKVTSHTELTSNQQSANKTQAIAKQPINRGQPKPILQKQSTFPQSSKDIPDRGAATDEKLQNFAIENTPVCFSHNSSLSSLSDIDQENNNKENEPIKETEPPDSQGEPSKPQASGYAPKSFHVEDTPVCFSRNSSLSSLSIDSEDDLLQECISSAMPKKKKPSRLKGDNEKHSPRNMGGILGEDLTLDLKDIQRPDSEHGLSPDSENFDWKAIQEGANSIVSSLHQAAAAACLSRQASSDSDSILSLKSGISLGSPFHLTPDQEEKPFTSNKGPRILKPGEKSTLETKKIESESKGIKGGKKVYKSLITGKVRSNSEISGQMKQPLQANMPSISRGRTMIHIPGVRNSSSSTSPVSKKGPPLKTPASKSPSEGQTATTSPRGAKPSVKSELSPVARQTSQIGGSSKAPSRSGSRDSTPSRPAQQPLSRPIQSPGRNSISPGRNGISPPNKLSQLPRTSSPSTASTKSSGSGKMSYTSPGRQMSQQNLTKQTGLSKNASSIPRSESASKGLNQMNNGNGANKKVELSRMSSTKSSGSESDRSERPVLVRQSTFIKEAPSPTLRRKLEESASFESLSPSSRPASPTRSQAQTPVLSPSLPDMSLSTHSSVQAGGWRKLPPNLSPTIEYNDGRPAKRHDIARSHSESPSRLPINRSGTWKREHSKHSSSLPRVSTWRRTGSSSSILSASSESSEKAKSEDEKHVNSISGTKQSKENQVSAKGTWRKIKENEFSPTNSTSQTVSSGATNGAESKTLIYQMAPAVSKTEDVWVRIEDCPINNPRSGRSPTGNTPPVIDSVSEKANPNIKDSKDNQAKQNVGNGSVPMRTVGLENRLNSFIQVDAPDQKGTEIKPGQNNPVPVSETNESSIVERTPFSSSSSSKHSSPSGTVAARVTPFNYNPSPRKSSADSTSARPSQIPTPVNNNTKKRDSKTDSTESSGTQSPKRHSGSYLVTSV

Target: T1, APC-stimulated-exchange-factor (Asef)2 (human) (UniProt Q96N96)
T1 sequence (looked up): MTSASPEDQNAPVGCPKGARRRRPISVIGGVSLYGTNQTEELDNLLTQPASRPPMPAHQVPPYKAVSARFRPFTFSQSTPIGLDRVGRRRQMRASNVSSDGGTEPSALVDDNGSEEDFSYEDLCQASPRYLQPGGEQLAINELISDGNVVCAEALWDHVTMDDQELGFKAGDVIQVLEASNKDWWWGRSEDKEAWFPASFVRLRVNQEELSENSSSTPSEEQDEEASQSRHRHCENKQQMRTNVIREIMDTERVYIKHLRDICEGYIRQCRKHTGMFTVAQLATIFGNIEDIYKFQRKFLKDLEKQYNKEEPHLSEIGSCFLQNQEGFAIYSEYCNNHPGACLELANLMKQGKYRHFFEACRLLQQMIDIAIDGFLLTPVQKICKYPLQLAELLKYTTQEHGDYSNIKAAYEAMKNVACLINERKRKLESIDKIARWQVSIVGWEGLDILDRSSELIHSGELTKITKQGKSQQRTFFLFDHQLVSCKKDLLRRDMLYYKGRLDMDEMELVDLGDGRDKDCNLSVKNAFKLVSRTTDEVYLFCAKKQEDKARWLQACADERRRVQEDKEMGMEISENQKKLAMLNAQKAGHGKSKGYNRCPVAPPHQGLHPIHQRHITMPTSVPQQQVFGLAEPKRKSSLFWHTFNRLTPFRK
Assay: co-immunoprecipitation from HUVEC lysates (anti-APC IP, anti-Asef2 blot)

- binding: binds
Substance: Adenomatous Polyposis Coli (APC) (from UniProt P25054 2-2843)
